Data source: PubChem BioAssay AID1671195 (Yale University, 2021)
The whole screen tested about 22,000 reagents; shown is an unselected part. About 1,510 of all reagents (6.9%) were called active. 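Active includes knockdowns raising or lowering LDL uptake; positive z-scores mean more uptake, negative mean less.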 Entries without a mark were called inactive.

Test: 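Knockdowns that increase or decrease uptake of fluorescent LDL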 (primary screen)
System: human Huh7 hepatoma cells
Reagent: siRNA pool against human genes, 18 nM
Time to read-out: about 2 to 2.5 days of knockdown, then 8 h LDL uptake
Treatment: DiI-labelled LDL at 30 µg/ml for 8 h, in lipoprotein-deficient serum medium
Measurement: 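Fluorescent LDL signal imaged in cells, scaled to the plate median, robust z-score for each replicate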
Direction: robust z-score: higher = more LDL uptake after knockdown
Call rule: 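Active when two or more replicates show a robust z-score above 2 or below -2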

Target gene | robust z-score, replicate 1 | robust z-score, replicate 2 | robust z-score, replicate 3
SPANXN1 (GeneID 494118) | -0.335 | -0.363 | -0.177
PCSK7 (GeneID 9159) | -0.871 | 0.563 | -0.41
GFI1B (GeneID 8328) | 0.342 | 0.365 | -0.193
EXOC3L2 (GeneID 90332) | -1.17 | -1.5 | -1.32
TMEM185A (GeneID 84548) | 0.877 | 0.55 | 1.11
TSPAN5 (GeneID 10098) | 1.63 | 1.04 | 1.58
PARP1 (GeneID 142) | -0.666 | 0.799 | -0.483
OR10Q1 (GeneID 219960) | 0.366 | -0.305 | -0.168
INSIG2 (GeneID 51141) | -0.227 | -1.46 | -0.214
ST6GALNAC2 (GeneID 10610) | 0.099 | 0.141 | 0.387
ST6GALNAC5 (GeneID 81849) | -2.19 (active) | -2.1 | -1.97
DEFB125 (GeneID 245938) | 0.472 | 0.582 | -0.0122
PPP1R27 (GeneID 116729) | -2.52 | -0.891 | -0.977
LCE1B (GeneID 353132) | -0.872 | -1.29 | -0.923
RNF168 (GeneID 165918) | -0.608 | -0.0125 | -0.2

Continued, starting with the last 2 of the part before.
Target gene | robust z-score, replicate 1 | robust z-score, replicate 2 | robust z-score, replicate 3
LCE1B (GeneID 353132) | -0.872 | -1.29 | -0.923
RNF168 (GeneID 165918) | -0.608 | -0.0125 | -0.2
LOC401119 (retired record) (GeneID 401119) | -0.387 | -0.559 | -0.689
SELE (GeneID 6401) | -0.854 | -0.886 | -0.795
FRRS1 (GeneID 391059) | -2.01 (active) | -1.97 | -2.37
AMIGO2 (GeneID 347902) | -0.427 | -0.333 | 0.0528
TP53TG1 (GeneID 11257) | 0.488 | -0.567 | 1.09
SYN2 (GeneID 6854) | -0.476 | -0.358 | -0.378
LOC441337 (retired record) (GeneID 441337) | 2.55 | 1.97 | 1.76
BCL2L13 (GeneID 23786) | -1.45 | -1.39 | -1.45
ZNF292 (GeneID 23036) | 1.5 | 0.673 | 0.857
VPS50 (GeneID 55610) | 3.9 (active) | 1.77 | 2.83
CPT1B (GeneID 1375) | 0.246 | -0.121 | -0.164
HMG20A (GeneID 10363) | -0.457 | 0.114 | -1.29
FBL (GeneID 2091) | -0.0972 | 0.288 | -0.1
